# According to PubChem BioAssay AID720504 (National Center for Advancing Translational Sciences (NCATS), 2013):
# Chains of the proteins cited; added tags and fusions are not shown.
# UniProt P53350, whole entry, looked up: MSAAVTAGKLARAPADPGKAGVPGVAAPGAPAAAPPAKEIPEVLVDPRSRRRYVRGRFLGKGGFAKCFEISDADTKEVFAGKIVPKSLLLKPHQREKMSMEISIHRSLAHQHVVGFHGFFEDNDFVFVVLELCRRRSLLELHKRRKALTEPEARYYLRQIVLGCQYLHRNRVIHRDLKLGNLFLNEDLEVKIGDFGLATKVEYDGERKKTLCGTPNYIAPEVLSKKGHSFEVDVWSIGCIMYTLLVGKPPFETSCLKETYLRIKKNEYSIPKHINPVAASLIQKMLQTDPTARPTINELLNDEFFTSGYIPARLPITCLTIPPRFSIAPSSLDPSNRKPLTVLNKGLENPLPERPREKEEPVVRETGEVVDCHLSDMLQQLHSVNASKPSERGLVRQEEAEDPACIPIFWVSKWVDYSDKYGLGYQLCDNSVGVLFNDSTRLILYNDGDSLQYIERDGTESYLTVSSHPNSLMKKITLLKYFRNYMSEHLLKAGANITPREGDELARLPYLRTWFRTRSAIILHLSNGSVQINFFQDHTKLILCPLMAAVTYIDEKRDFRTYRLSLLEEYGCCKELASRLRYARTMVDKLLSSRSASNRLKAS
# Screen size: about 360,000 compounds; about 10,000 (2.8%) were called active. Inconclusive means that the source gave no clear call. Such entries were picked first, then a sample of the others. The call rests on the fitted dose curve; in most records, active means well fitted inhibition curve with a large enough effect; inconclusive means small, poorly fitted or top-dose-only effect; inactive means flat fitted curve, though single readings scatter. Potencies of inconclusive entries are doubtful fits and often do not repeat.
# Biological target: Serine/threonine-protein kinase PLK1 (Homo sapiens) (UniProt P53350)
# Assay: qHTS for Inhibitors of PLK1-PDB (polo-like kinase 1 - polo-box domain): Primary Screen; further: nearly all actives have a fitted effect of over 65% in size; on max response, negative = inhibition: series mostly up to about 57 µM
# Conditions: Plk1 PBD binding of FITC phosphopeptide, fluorescence polarization
# On the % scale 0 is the no-effect control and ±100 the full control effect; potency means the concentration at half of the fitted maximal effect.
SMILES,Potency,"max response, negative = inhibition"
Cc1cccc(-c2cc3nc(C)cc(NCCCn4ccnc4)n3n2)c1,active: 23.8 µM,
CCCCCCN1C[C@H](n2cc(C3CC3)nn2)[C@@H](O)C[C@@H]1c1ccc(Cl)cc1,,inactive: 5.38%
COc1cccc(/C=N/NC(=O)CSc2cccc3cccnc23)c1,"inconclusive: 26.7 µM [inhibitor, partial curve]",
CCn1c(C)c(CS(=O)(=O)c2ccccc2)[nH]c1=O,active: 3.36 µM,
CCC1(C)Cc2c(sc3nc(SC)nc(NCCN(C)C)c23)CO1 (stereo unspecified),,inactive: 2.39%
CCC1(CC)NC(=O)N(CC(=O)OCC(=O)c2ccccc2OC)C1=O,,inactive: 1.38%
COc1ccc(CN(C)C(=O)c2ccccc2Sc2ccccc2C#N)cc1OC,"inconclusive: 6.7 µM [inhibitor, partial curve]",
Cc1ccc(NC(=O)C(=O)NCC2CCCO2)cc1 (stereo unspecified),,inactive: -12.2%
COC(=O)c1ccc(NC(=O)CSc2nc(=O)cc(N)n2-c2ccccc2)cc1,active: 26.7 µM,
Cc1cc(NS(=O)(=O)c2ccc(NC(=O)COc3ccc(Br)cc3)cc2)nc(C)n1,active: 2.67 µM,
COCCNC(=O)COc1ccc(Nc2ccccc2)cc1,,inactive: -8.06%
CCN(CC)CCSc1nnc2c3cc(C)ccc3n(Cc3ccccc3)c2n1,"inconclusive: 26.7 µM [inhibitor, partial curve]",
Nc1nc(SCC(=O)N2CCCc3ccccc32)n[nH]1,,inconclusive: -32.1% [inhibitor]
Cc1cc(C)nc(SCc2cc(=O)c(OC(=O)c3cccc([N+](=O)[O-])c3)co2)n1,"inconclusive: 29.9 µM [inhibitor, partial curve]",
Cc1ccc(-c2csc(/C(C#N)=C(\O)CCl)n2)cc1,"inconclusive: 26.7 µM [inhibitor, partial curve]",
CC1CC1C(=O)OCC(=O)Nc1ccccc1Oc1ccccc1 (stereo unspecified),active: 26.7 µM,
CCCCCC(=O)N/N=C/c1ccc([N+](=O)[O-])o1,,inactive: -5.32%
Nc1ccc(C(=O)n2c3ccccc3c3ccccc32)cc1,,inactive: -20.9%
O=C(NCCCCNC(=O)C(F)(F)F)C(F)(F)F,,inactive: -4.77%
O=C1CC(=O)N(Cc2ccco2)C(=O)N1,active: 6.7 µM,
Cc1nnc(Sc2cc(NCCO)c([N+](=O)[O-])c3nonc23)s1,active: 2.38 µM,
O=C(COc1ccc([N+](=O)[O-])cc1)NNC(=S)NC(=O)c1ccc(Br)cc1,active: 13.4 µM,
Cn1c(=O)c2c(nc(NCCCO)n2C/C=C/c2ccccc2)n(C)c1=O,,inactive: -2.79%
Cc1ccc(C(C2C(=O)CC(C)(C)CC2=O)C2C(=O)CC(C)(C)CC2=O)s1,active: 2.67 µM,
O=C(/C=C/[C@H]1O[C@@H](n2ccc(=O)[nH]c2=O)[C@H](O)[C@@H]1O)NCC1CCCO1 (stereo partly specified),,inactive: -15.5%
CN(C)c1ccc(NC(=S)NC(=O)/C=C/c2ccc(Cl)cc2)cc1,"inconclusive: 29.9 µM [inhibitor, single point]",

SMILES,Potency,"max response, negative = inhibition"
N#C/C(=C\c1cccc(Oc2ccccc2)c1)C(=O)N1CCOCC1,"inconclusive: 29.9 µM [inhibitor, single point]",
CN(CC(=O)Nc1ccccc1Br)C(=O)CCSc1ccc(F)cc1,"inconclusive: 26.7 µM [inhibitor, single point]",
CCOc1ccc(/C=C/C(=O)c2cc(Br)ccc(=O)c2O)cc1,"inconclusive: 9.47 µM [inhibitor, partial curve]",
O=[N+]([O-])c1ccccc1/C=C/C=N/n1c(-c2cc(-c3ccccc3)n[nH]2)n[nH]c1=S,,inconclusive: -30.4% [inhibitor]
CC(=O)Cn1c(CN2CCN(C(=O)c3ccco3)CC2)nc2c1c(=O)n(C)c(=O)n2C,,inactive: -17.4%
CC(=O)Nc1ccc(SC[C@H](CC(C)C)N2CCN(CCc3ccccc3)CCC2=O)cc1,active: 18.9 µM,
Cc1nc([N+](=O)[O-])c(Sc2nc3ccccc3n2C)n1Cc1ccccc1,"inconclusive: 18.9 µM [inhibitor, partial curve]",
O=C(O)c1ccccc1-c1cccc2nncn12,"inconclusive: 26.7 µM [inhibitor, partial curve]",
CCOC(=O)C1CCCN(Cc2cccc(Oc3ccccc3)c2)C1 (stereo unspecified),,inactive: -3.33%
CCc1ccc(OCC(=O)Nc2ccc(N3CCN(S(C)(=O)=O)CC3)cc2)cc1,,inactive: 6.52%
Cn1c(CO)nc2c3ccccc3ccc21,,inactive: -1.71%
CCN(CC)C(=O)CSc1nc2c(sc(=S)n2-c2ccccc2)c(=O)n1-c1ccccc1OC,,inactive: 0.97%
CC(c1ccco1)N(C(=O)C12CC3(C)CC(C)(CC(C)(C3)C1)C2)c1ccccn1 (stereo unspecified),"inconclusive: 23.8 µM [inhibitor, partial curve]",
Cc1nc2sccn2c1-c1csc(NCc2ccccc2)n1,"inconclusive: 26.7 µM [inhibitor, single point]",
COc1ccc(CNc2oc(-c3cccc4ccccc34)nc2C#N)cc1,,inactive: -4.39%
CCn1c(COc2ccc(Cl)cc2)nnc1SCc1ccc(C#N)cc1,"inconclusive: 23.8 µM [inhibitor, single point]",
O=C(O)CCC(C(=O)O)n1c(O)c(C2=c3ccccc3=NC2=O)sc1=S (stereo unspecified),,inactive: -11%
Cc1cc(C)cc(-n2c(C)cc(/C=C3\C(=N)N4N=C(CC(C)C)SC4=NC3=O)c2C)c1,"inconclusive: 23.8 µM [inhibitor, partial curve]",
CC(=O)c1c(C)[nH]c(C(=O)CSc2nnc(-c3cccs3)n2Cc2ccccc2)c1C,active: 16.8 µM,
O=C(O)c1csc(-c2cccs2)n1,,inactive: 8.65%
COc1cc(-c2ccccc2)[nH]c(=S)n1,"inconclusive: 2.67 µM [inhibitor, full curve]",
Cn1ccsc1=NC(=O)c1ccc(S(=O)(=O)C(F)F)cc1,,inactive: 1.13%
CC1CCN(S(=O)(=O)c2ccc3c(c2)C(Cl)(Cl)C(=O)N3)CC1,"inconclusive: 18.9 µM [inhibitor, partial curve]",
CCc1ccc(C(C)NC(=O)c2cc(C)oc2C)cc1 (stereo unspecified),"inconclusive: 23.8 µM [inhibitor, partial curve]",
O=C(Nc1ccc(S(=O)(=O)Nc2nccs2)cc1)c1nn(-c2ccc(F)cc2)ccc1=O,"inconclusive: 29.9 µM [inhibitor, single point]",

# Compounds above with a furan ring, fused or not:
SMILES,Potency,"max response, negative = inhibition"
CCCCCC(=O)N/N=C/c1ccc([N+](=O)[O-])o1,,inactive: -5.32%
O=C1CC(=O)N(Cc2ccco2)C(=O)N1,active: 6.7 µM,
CC(=O)Cn1c(CN2CCN(C(=O)c3ccco3)CC2)nc2c1c(=O)n(C)c(=O)n2C,,inactive: -17.4%
CC(c1ccco1)N(C(=O)C12CC3(C)CC(C)(CC(C)(C3)C1)C2)c1ccccn1 (stereo unspecified),"inconclusive: 23.8 µM [inhibitor, partial curve]",
CCc1ccc(C(C)NC(=O)c2cc(C)oc2C)cc1 (stereo unspecified),"inconclusive: 23.8 µM [inhibitor, partial curve]",

# Remaining list, next part.

SMILES,Potency,"max response, negative = inhibition"
Cn1nnc(NC(=S)NC(=O)c2cc3ccccc3o2)n1,"inconclusive: 26.7 µM [inhibitor, single point]",
Cc1cccc(-c2nsc(SCC(=O)Nc3cc(C)on3)n2)c1,"inconclusive: 26.7 µM [inhibitor, single point]",
FC(F)(F)c1cc(-c2ccco2)nc(NCc2cccs2)n1,"inconclusive: 26.7 µM [inhibitor, partial curve]",
CC1(CCc2ccc3c(c2)OCO3)NCCc2c1[nH]c1ccccc21 (stereo unspecified),,inactive: -8.13%
CC(C)(C)NC(=O)Nc1ccc(Cn2cc(C(F)(F)F)ccc2=O)cc1,active: 23.8 µM,
O=C(COCc1ccccc1)N[C@@H](Cc1ccc(O)cc1)C(=O)O,"inconclusive: 21.2 µM [inhibitor, partial curve]",
CCOc1ccc(NC(=O)c2c[nH]n3c(=O)cc(C4CCN(C(=O)OC(C)(C)C)CC4)nc23)cc1,"inconclusive: 29.9 µM [inhibitor, partial curve]",
COc1cc(OC)cc(C(=O)Nc2ccc([N+](=O)[O-])cn2)c1,active: 26.7 µM,
CC1CCCC(C)N1C(=O)COC(=O)/C=C/c1ccc(Br)o1 (stereo unspecified),"inconclusive: 23.8 µM [inhibitor, single point]",
S=c1[nH]nc(-c2ccccc2)n1/N=C/c1cccc(Br)c1,,inconclusive: -35.5% [inhibitor]
Cc1nn(-c2ccc(C(=O)O)cc2)c(=O)c2ccccc12,"inconclusive: 21.2 µM [inhibitor, single point]",
COc1cccc(-c2nnc(NC(=O)Cc3cccs3)s2)c1,"inconclusive: 13.4 µM [inhibitor, partial curve]",
Cn1c(CC2Sc3ccccc3NC2=O)nnc1SCC(=O)c1ccc(Cl)cc1 (stereo unspecified),"inconclusive: 21.2 µM [inhibitor, partial curve]",
COC(=O)c1ccc(C2c3c(oc4ccccc4c3=O)C(=O)N2CCCN2CCOCC2)cc1 (stereo unspecified),"inconclusive: 21.2 µM [inhibitor, single point]",
CCCOc1ccc(S(=O)(=O)NNC(=O)c2cc3ccccc3o2)cc1,,inactive: -10.1%
O=C(CC1NCCc2ccccc21)Nc1ccccc1 (stereo unspecified),,inactive: -7.51%
COc1cc2cc(C(=O)Nc3ccccc3)c(N)nc2cc1OC,active: 23.8 µM,
Cc1cccc(OCc2nnc(SCC(=O)N3c4ccccc4CCc4ccccc43)o2)c1,,inactive: -5.7%
CCCCN(C(=O)CSc1nnc(-c2ccccc2OC)n1C)c1c(N)n(Cc2ccccc2)c(=O)[nH]c1=O,"inconclusive: 8.44 µM [inhibitor, single point]",
Cc1ccc(CSCCNC(=O)c2ccc(NS(C)(=O)=O)cc2)cc1,,inactive: -3.33%
O=C(NC(=S)Nc1ccccc1N1CCCC1)c1ccco1,"inconclusive: 29.9 µM [inhibitor, single point]",
COc1ccccc1C(=O)NNC(=O)c1cccc(C)c1,active: 16.8 µM,
O=C(COc1ccc(Cl)cc1)Nc1nnc(C2=COCCO2)o1,,inactive: -15.3%
COc1ccc(Cc2nnc(NC(=O)Cn3cnc4c3c(=O)n(C)c(=O)n4C)s2)cc1OC,,inconclusive: -34.3% [inhibitor]
